The list shows a part of the results. Repeats are few or missing, and single values can be far off.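 The apoptosis fraction was the count of cleaved-PARP antibody-stained nuclei relative to all DNA-stained nuclei, imaged in 1,536-well plates. Screening doses were set so most cells survived, and baseline and induced cleaved-PARP levels vary greatly across cell lines.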
Experiments:
Test in all cases: cleaved PARP positive nuclei fraction relative to DMSO control; melanoma cells; higher = more apoptosis
Conditions in all cases: library dose: low library concentration; 72 h
[1] = system: WM115
[2] = system: WM1716
[3] = system: WM1745
[4] = system: WM3526
[5] = system: WM3619
[6] = system: WM451Lu

Row | Compound | cleaved PARP positive nuclei fraction [1] [%] | cleaved PARP positive nuclei fraction [2] [%] | cleaved PARP positive nuclei fraction [3] [%] | cleaved PARP positive nuclei fraction [4] [%] | cleaved PARP positive nuclei fraction [5] [%] | cleaved PARP positive nuclei fraction [6] [%]
1 | C[C@]12O[C@H](C[C@]1(O)CO)n1c3ccccc3c3c4c(c5c6ccccc6n2c5c31)CNC4=O [Lestaurtinib] + CN(C)S(=O)(=O)c1ccc2c(c1)/C(=C/c1cc3c([nH]1)CCCC3)C(=O)N2 [SU6656] (first compound 0.004 µM, partner dose 0.4 µM) | 414 | 53.6 | 109 | 81 | 92.7 | 146
2 | O=C(O)[C@@H]1[O][Sb](=[O])([O][Sb]2(=[O])[O][C@H]([C@H](O)CO)[C@H](O)[C@H](C(=O)O)[O]2)[O][C@H]([C@H](O)CO)[C@@H]1O (stereo not given in full) [stibogluconate] + O=C(Oc1ccc([N+](=O)[O-])cc1)N1CCC(C(O)(c2ccc3c(c2)OCO3)c2ccc3c(c2)OCO3)CC1 [JZL184] (first compound 2 µM, partner dose 1 µM) | 110 | 333 | 82.1 | 78.2 | 99.7 | 37.5
3 | Cn1cc(C2=C(c3cn(C4CCN(Cc5ccccn5)CC4)c4ccccc34)C(=O)NC2=O)c2ccccc21 [Enzastaurin] + COCC[n+]1c2c(n(Cc3cnccn3)c1C)C(=O)c1ccccc1C2=O [YM155] (first compound 0.8 µM, partner dose 0.0004 µM) | 56.1 | 40.5 | 93.6 | 281 | 81.7 | 33
4 | Cn1cc(C2=C(c3cn(C4CCN(Cc5ccccn5)CC4)c4ccccc34)C(=O)NC2=O)c2ccccc21 [Enzastaurin] + Nc1nc(F)nc2c1ncn2[C@@H]1O[C@H](CO)[C@@H](O)[C@@H]1O [fludarabine] (first compound 0.8 µM, partner dose 0.2 µM) | 20.5 | 57.8 | 94.8 | 244 | 106 | 57.5
5 | COc1ccc(COc2ccc(Cc3cnc(N)nc3N)cc2OC)cc1 + Cc1cc(SCc2sc(-c3ccc(C(F)(F)F)c(F)c3)nc2C)ccc1OCC(=O)O [GW0742] (first compound 1 µM, partner dose 2 µM) | 51.3 | 86.1 | 112 | 56.1 | 82.5 | 158
6 | COc1cc2ncnc(Nc3ccc(Oc4ccccc4)cc3)c2cc1OC + C/C(O)=C(\C#N)C(=O)Nc1cc(Br)ccc1Br [LFM-A13] (first compound 2 µM, partner dose 2 µM) | 123 | 114 | 110 | 356 | 95.1 | 49.9
7 | C[C@]12O[C@H](C[C@]1(O)CO)n1c3ccccc3c3c4c(c5c6ccccc6n2c5c31)CNC4=O [Lestaurtinib] + COc1cc2ncnc(Nc3ccc(Oc4ccccc4)cc3)c2cc1OC [SrcI1] (first compound 0.004 µM, partner dose 2 µM) | 95 | 45.1 | 96.4 | 77.9 | 89.5 | 105
8 | C/C(O)=C(\C#N)C(=O)Nc1cc(Br)ccc1Br + Cc1cc([N+](=O)[O-])ccc1NS(=O)(=O)c1cc(Cl)ccc1Cl [FH535] (first compound 2 µM, partner dose 1 µM) | 192 | 145 | 208 | 149 | 92.2 | 62.4
9 | N.N.[Cl][Pt][Cl] [cisplatin] + C[C@@H]1CCN(C(=O)CC#N)C[C@@H]1N(C)c1ncnc2[nH]ccc12 [CP690550] (first compound 1.6 µM, partner dose 1 µM) | 48.3 | 88.2 | 93.3 | 62.7 | 102 | 76.9
10 | N.N.[Cl][Pt][Cl] [cisplatin] + COC(=O)c1sccc1S(=O)(=O)Nc1ccc(Nc2ccccc2)cc1OC [GSK0660] (first compound 1.6 µM, partner dose 1 µM) | 94 | 92 | 85.7 | 58.2 | 139 | 30.3
11 | NC(=O)Nc1cc(-c2cccc(F)c2)sc1C(=O)N[C@H]1CCCNC1 + Cc1cc(SCc2sc(-c3ccc(C(F)(F)F)c(F)c3)nc2C)ccc1OCC(=O)O [GW0742] (first compound 0.02 µM, partner dose 2 µM) | 69.9 | 131 | 99 | 150 | 228 | 64.1
12 | Nc1nc(F)nc2c1ncn2[C@@H]1O[C@H](CO)[C@@H](O)[C@@H]1O [fludarabine] + C[As](C)SC[C@H](NC(=O)CC[C@H](N)C(=O)O)C(=O)NCC(=O)O [Darinaparsin] (first compound 0.2 µM, partner dose 0.4 µM) | 186 | 52.9 | 81.9 | 1690 | 97.8 | 388
13 | Cn1cc(C2=C(c3cn(C4CCN(Cc5ccccn5)CC4)c4ccccc34)C(=O)NC2=O)c2ccccc21 [Enzastaurin] + CCc1ccc(CCOc2ccc(CC3SC(=O)NC3=O)cc2)nc1 [pioglitazone] (first compound 0.8 µM, partner dose 2 µM) | 57.5 | 22.7 | 101 | 66 | 107 | 62.6
14 | Nc1nc(F)nc2c1ncn2[C@@H]1O[C@H](CO)[C@@H](O)[C@@H]1O [fludarabine] + O=C(Oc1ccc([N+](=O)[O-])cc1)N1CCC(C(O)(c2ccc3c(c2)OCO3)c2ccc3c(c2)OCO3)CC1 [JZL184] (first compound 0.2 µM, partner dose 1 µM) | 69.7 | 98.7 | 174 | 1550 | 98.8 | 338
15 | CCCS(=O)(=O)Nc1ccc(F)c(C(=O)c2c[nH]c3ncc(Cl)cc23)c1F + Cc1cc(SCc2sc(-c3ccc(C(F)(F)F)c(F)c3)nc2C)ccc1OCC(=O)O [GW0742] (first compound 0.08 µM, partner dose 2 µM) | 77.1 | 298 | 108 | 101 | 88.4 | 100
16 | Cn1nnc2c(C(N)=O)ncn2c1=O [temozolomide] + O=C(Oc1ccc([N+](=O)[O-])cc1)N1CCC(C(O)(c2ccc3c(c2)OCO3)c2ccc3c(c2)OCO3)CC1 [JZL184] (first compound 2 µM, partner dose 1 µM) | 171 | 107 | 128 | 184 | 93.7 | 80.4
17 | C[C@]12O[C@H](C[C@]1(O)CO)n1c3ccccc3c3c4c(c5c6ccccc6n2c5c31)CNC4=O [Lestaurtinib] + COc1cc(Nc2ncc(F)c(Nc3ccc4c(n3)NC(=O)C(C)(C)O4)n2)cc(OC)c1OC [Tamatinib] (first compound 0.004 µM, partner dose 0.4 µM) | 62.1 | 146 | 130 | 63.1 | 90.7 | 58
18 | C[As](C)SC[C@H](NC(=O)CC[C@H](N)C(=O)O)C(=O)NCC(=O)O [Darinaparsin] + Cc1cc(SCc2sc(-c3ccc(C(F)(F)F)c(F)c3)nc2C)ccc1OCC(=O)O [GW0742] (first compound 0.4 µM, partner dose 2 µM) | 80.7 | 46.1 | 106 | 93.5 | 73.3 | 63.1
19 | Cn1c(=O)n(-c2ccc(C(C)(C)C#N)cc2)c2c3cc(-c4cnc5ccccc5c4)ccc3ncc21 + O=C(Oc1ccc([N+](=O)[O-])cc1)N1CCC(C(O)(c2ccc3c(c2)OCO3)c2ccc3c(c2)OCO3)CC1 [JZL184] (first compound 0.004 µM, partner dose 1 µM) | 143 | 118 | 93.8 | 85 | 84.7 | 72.4
20 | Cn1cc(C2=C(c3cn(C4CCN(Cc5ccccn5)CC4)c4ccccc34)C(=O)NC2=O)c2ccccc21 [Enzastaurin] + Cc1nc(Nc2ncc(C(=O)Nc3c(C)cccc3Cl)s2)cc(N2CCN(CCO)CC2)n1 [dasatanib] (first compound 0.8 µM, partner dose 0.004 µM) | 120 | 152 | 135 | 64.6 | 117 | 30.6
21 | O=S(=O)(c1ccccc1)N(CC(F)(F)F)c1ccc(C(O)(C(F)(F)F)C(F)(F)F)cc1 + C/C(O)=C(\C#N)C(=O)Nc1cc(Br)ccc1Br [LFM-A13] (first compound 1.4 µM, partner dose 2 µM) | 277 | 84.3 | 109 | 83.7 | 95.2 | 68.6
22 | O=C(Nc1cc(C(F)(F)F)cc(C(F)(F)F)c1)c1cc(Cl)ccc1O + C[C@]12O[C@H](C[C@]1(O)CO)n1c3ccccc3c3c4c(c5c6ccccc6n2c5c31)CNC4=O [Lestaurtinib] (first compound 0.016 µM, partner dose 0.004 µM) | 85 | 5.11 | 348 | 59.2 | 88.6 | 76.1
23 | Cn1cncc1[C@@](N)(c1ccc(Cl)cc1)c1ccc2c(c1)c(-c1cccc(Cl)c1)cc(=O)n2C [tipifarnib] + Cc1cc(SCc2sc(-c3ccc(C(F)(F)F)c(F)c3)nc2C)ccc1OCC(=O)O [GW0742] (first compound 0.01 µM, partner dose 2 µM) | 138 | 92.8 | 100 | 78.5 | 342 | 75.9
24 | Cn1cc(C2=C(c3cn(C4CCN(Cc5ccccn5)CC4)c4ccccc34)C(=O)NC2=O)c2ccccc21 [Enzastaurin] + O=S(=O)(c1ccccc1)N(CC(F)(F)F)c1ccc(C(O)(C(F)(F)F)C(F)(F)F)cc1 [T0901317] (first compound 0.8 µM, partner dose 1.4 µM) | 188 | 327 | 103 | 141 | 104 | 70.5
25 | C[C@@H](Oc1cc(-c2cnn(C3CCNCC3)c2)cnc1N)c1c(Cl)ccc(F)c1Cl [Crizotinib] + O=C(Oc1ccc([N+](=O)[O-])cc1)N1CCC(C(O)(c2ccc3c(c2)OCO3)c2ccc3c(c2)OCO3)CC1 [JZL184] (first compound 0.2 µM, partner dose 1 µM) | 42.7 | 54.3 | 77.9 | 77.7 | 79.2 | 35.2

Part of the list above, set out differently.
Row	Compound	cleaved PARP positive nuclei fraction [1] [%]	cleaved PARP positive nuclei fraction [2] [%]	cleaved PARP positive nuclei fraction [3] [%]	cleaved PARP positive nuclei fraction [4] [%]	cleaved PARP positive nuclei fraction [5] [%]	cleaved PARP positive nuclei fraction [6] [%]
11	NC(=O)Nc1cc(-c2cccc(F)c2)sc1C(=O)N[C@H]1CCCNC1 + Cc1cc(SCc2sc(-c3ccc(C(F)(F)F)c(F)c3)nc2C)ccc1OCC(=O)O [GW0742] (first compound 0.02 µM, partner dose 2 µM)	69.9	131	99	150	228	64.1
16	Cn1nnc2c(C(N)=O)ncn2c1=O [temozolomide] + O=C(Oc1ccc([N+](=O)[O-])cc1)N1CCC(C(O)(c2ccc3c(c2)OCO3)c2ccc3c(c2)OCO3)CC1 [JZL184] (first compound 2 µM, partner dose 1 µM)	171	107	128	184	93.7	80.4

Reference: the supplement of paper PMC4604168 (melanoma cell lines)
